Test results reported in paper doi:10.1101/2024.02.13.579840.
No constants are given. Whether binding was seen depends on the method and setting. Binding seen in cells or lysates may run through a third protein. A yes stands for co-enrichment or nearness to the bait. Other partners may have been found. No binding means not detected with the bait. For part of these data: Tags and fused reporters may be left off the sequences shown.

By UniProt entry, the sequences of proteins in these tests, tags left out.
UniProt Q9H4A3: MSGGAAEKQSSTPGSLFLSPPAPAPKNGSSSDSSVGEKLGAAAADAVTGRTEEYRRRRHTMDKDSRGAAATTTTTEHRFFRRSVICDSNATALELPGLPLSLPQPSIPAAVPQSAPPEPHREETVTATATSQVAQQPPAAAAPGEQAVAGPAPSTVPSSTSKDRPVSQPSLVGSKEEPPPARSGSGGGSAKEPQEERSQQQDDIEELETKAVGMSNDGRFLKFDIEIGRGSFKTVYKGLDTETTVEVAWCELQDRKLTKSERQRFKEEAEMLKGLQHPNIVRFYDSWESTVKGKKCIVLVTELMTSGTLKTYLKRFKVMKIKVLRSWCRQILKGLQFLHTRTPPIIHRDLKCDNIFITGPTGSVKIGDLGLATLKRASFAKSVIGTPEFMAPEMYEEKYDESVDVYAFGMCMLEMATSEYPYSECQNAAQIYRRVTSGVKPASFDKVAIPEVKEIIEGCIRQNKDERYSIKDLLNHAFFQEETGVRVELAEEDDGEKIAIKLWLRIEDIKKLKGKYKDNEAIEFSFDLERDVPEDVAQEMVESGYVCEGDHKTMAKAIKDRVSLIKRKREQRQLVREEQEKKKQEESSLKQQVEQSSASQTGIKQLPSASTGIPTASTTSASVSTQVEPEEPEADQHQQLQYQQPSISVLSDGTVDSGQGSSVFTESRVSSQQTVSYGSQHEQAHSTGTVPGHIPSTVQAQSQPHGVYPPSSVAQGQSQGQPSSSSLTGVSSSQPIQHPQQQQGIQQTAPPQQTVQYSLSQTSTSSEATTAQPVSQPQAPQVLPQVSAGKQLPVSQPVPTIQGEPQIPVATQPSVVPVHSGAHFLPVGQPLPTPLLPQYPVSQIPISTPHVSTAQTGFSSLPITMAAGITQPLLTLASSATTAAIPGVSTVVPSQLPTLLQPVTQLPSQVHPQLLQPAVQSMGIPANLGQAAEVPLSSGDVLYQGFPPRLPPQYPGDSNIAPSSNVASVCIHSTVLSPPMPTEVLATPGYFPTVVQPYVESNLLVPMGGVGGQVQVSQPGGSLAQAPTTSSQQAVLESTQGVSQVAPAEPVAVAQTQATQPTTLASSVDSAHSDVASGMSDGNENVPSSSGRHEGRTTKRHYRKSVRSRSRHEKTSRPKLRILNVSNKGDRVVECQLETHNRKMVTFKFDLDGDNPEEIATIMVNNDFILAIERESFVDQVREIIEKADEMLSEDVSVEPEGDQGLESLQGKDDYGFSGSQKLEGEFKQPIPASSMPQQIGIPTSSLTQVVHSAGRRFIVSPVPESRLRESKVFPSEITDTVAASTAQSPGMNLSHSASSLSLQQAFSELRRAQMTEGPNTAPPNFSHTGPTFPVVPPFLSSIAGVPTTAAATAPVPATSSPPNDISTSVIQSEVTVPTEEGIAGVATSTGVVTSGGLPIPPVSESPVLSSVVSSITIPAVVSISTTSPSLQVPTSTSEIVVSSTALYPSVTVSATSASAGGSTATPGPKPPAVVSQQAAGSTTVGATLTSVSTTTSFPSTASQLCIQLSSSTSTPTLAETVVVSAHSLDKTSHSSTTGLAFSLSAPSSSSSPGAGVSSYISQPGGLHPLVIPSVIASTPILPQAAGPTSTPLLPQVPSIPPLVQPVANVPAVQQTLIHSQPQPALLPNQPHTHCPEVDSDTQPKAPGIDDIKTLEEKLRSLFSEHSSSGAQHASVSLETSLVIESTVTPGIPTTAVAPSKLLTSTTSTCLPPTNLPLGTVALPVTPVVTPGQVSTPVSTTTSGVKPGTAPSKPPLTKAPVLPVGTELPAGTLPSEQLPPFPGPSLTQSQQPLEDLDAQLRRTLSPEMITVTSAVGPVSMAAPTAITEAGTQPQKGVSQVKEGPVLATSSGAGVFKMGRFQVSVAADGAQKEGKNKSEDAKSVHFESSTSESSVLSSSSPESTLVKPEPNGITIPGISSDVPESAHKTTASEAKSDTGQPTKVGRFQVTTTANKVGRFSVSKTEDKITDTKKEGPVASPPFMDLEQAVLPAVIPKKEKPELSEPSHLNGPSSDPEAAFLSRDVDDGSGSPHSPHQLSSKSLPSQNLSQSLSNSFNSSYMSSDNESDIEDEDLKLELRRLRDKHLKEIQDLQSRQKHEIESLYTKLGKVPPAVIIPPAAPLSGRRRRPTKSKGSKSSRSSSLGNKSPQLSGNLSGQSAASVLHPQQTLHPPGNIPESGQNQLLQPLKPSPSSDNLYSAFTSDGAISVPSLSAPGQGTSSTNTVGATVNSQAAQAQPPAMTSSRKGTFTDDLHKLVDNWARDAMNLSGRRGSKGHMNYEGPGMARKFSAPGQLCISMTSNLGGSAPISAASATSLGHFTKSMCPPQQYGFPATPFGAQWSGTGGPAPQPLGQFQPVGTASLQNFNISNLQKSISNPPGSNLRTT
UniProt Q9UHY1: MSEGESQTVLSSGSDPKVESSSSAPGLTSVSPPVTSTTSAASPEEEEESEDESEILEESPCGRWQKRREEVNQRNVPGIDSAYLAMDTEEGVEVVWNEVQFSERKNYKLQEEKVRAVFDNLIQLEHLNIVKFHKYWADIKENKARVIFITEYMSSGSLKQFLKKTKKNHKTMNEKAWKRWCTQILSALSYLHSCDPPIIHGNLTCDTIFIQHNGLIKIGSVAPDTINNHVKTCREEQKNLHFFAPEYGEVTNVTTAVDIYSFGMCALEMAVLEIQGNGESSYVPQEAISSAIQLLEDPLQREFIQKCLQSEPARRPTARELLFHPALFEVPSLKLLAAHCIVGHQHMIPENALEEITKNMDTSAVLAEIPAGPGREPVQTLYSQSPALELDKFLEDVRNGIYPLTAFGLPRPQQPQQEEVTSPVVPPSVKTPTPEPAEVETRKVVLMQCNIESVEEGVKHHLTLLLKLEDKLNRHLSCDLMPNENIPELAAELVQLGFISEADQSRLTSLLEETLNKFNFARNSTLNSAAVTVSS
UniProt Q6ZN16: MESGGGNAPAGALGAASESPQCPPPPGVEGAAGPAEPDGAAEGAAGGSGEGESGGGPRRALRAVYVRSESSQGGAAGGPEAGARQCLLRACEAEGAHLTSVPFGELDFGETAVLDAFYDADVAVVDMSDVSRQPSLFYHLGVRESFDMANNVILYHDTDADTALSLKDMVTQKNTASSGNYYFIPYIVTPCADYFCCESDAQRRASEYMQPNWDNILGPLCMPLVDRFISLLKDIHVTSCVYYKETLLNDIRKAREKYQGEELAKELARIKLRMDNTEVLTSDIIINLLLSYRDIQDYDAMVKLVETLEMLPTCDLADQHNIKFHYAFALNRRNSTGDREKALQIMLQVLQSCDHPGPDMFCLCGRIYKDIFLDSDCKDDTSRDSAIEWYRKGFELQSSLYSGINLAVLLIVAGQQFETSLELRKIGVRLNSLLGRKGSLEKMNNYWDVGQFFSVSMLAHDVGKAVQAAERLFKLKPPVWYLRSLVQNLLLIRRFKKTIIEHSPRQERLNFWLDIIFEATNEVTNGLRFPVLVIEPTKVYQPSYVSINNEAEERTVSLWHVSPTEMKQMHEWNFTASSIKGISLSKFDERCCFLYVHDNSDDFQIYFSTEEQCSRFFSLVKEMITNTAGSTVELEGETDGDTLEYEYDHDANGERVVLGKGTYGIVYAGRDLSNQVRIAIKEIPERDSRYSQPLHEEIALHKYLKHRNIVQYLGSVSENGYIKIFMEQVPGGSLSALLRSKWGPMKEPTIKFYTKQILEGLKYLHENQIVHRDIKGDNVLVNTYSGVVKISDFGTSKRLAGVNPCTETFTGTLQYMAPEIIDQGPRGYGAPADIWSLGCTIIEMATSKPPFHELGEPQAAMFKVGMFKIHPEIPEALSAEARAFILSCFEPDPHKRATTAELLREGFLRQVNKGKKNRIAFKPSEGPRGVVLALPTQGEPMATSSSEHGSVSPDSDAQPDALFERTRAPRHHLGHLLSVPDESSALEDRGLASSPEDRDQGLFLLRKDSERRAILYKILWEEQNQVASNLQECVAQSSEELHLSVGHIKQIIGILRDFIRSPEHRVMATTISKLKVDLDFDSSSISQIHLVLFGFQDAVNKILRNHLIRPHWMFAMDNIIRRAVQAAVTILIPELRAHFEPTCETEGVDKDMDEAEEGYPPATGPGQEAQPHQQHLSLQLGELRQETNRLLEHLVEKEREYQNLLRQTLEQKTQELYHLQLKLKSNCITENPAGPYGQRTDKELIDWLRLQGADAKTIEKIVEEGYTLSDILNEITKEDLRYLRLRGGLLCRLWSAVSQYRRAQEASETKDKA
UniProt O95747: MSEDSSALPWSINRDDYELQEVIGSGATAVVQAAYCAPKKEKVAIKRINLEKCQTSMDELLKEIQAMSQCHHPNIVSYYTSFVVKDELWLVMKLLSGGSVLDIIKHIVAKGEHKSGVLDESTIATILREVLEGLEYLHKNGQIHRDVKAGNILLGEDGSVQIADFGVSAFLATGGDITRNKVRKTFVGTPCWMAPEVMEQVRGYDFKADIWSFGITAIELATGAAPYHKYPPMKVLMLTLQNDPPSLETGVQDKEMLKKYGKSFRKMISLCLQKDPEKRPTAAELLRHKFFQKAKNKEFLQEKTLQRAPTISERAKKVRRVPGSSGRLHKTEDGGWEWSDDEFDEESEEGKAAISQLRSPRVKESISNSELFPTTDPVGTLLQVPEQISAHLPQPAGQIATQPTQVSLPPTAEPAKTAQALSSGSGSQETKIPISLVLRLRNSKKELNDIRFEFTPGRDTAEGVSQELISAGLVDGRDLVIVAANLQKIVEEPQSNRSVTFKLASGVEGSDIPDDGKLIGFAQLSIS

T1: miniTurbo-2xHA endo-tagged TSC22D2 (human (endogenous in HAP1)) (UniProt O75157)
T1 sequence: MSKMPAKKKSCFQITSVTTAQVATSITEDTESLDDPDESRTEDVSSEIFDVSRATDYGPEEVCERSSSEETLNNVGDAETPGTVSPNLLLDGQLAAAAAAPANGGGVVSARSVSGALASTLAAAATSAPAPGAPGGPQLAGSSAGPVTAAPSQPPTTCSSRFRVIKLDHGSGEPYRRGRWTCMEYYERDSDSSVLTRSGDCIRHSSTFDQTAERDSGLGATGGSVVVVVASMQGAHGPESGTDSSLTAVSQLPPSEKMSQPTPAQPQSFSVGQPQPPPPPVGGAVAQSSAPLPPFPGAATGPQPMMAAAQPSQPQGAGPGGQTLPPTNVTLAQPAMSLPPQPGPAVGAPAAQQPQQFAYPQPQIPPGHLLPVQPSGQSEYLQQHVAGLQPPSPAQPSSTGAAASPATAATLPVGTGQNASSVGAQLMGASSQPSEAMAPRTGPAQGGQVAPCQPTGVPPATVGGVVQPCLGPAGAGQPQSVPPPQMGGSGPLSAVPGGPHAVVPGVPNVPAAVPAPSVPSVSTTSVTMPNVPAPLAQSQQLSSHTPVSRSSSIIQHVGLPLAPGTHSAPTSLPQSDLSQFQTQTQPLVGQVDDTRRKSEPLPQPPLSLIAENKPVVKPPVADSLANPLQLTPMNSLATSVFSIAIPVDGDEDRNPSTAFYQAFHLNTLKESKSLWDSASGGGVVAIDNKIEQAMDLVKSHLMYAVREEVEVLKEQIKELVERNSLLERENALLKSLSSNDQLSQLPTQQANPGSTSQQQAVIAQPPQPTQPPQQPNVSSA


What was measured:
Assay in all cases: proximity labelling
[1] = target: miniTurbo-2xHA endo-tagged WNK1 (human (endogenous in HAP1)) (UniProt Q9H4A3)
[2] = target: T1, miniTurbo-2xHA endo-tagged TSC22D2 (human (endogenous in HAP1))
[3] = target: miniTurbo-2xHA endo-tagged NRBP1 (human (endogenous in HAP1)) (UniProt Q9UHY1)

binding [1] | binding [2] | binding [3] | Molecule
no binding | no binding | no binding | ASK3(MAP3K15) (from UniProt Q6ZN16 1-1313)
binds | binds | binds | OXSR1 (from UniProt O95747 1-527)
 |  | binds | TSC22D4 (protein, UniProt Q9Y3Q8 1-395) MSGGKKKSSFQITSVTTDYEGPGSPGASDPPTPQPPTGPPPRLPNGEPSPDPGGKGTPRNGSPPPGAPSSRFRVVKLPHGLGEPYRRGRWTCVDVYERDLEPHSFGGLLEGIRGASGGAGGRSLDSRLELASLGLGAPTPPSGLSQGPTSWLRPPPTSPGPQARSFTGGLGQLVVPSKAKAEKPPLSASSPQQRPPEPETGESAGTSRAATPLPSLRVEAEAGGSGARTPPLSRRKAVDMRLRMELGAPEEMGQVPPLDSRPSSPALYFTHDASLVHKSPDPFGAVAAQKFSLAHSMLAISGHLDSDDDSGSGSLVGIDNKIEQAMDLVKSHLMFAVREEVEVLKEQIRELAERNAALEQENGLLRALASPEQLAQLPSSGVPRLGPPAPNGPSV
 |  | binds | TSC22D1 (protein, UniProt Q15714 1-1073) MHQPPESTAAAAAAADISARKMAHPAMFPRRGSGSGSASALNAAGTGVGSNATSSEDFPPPSLLQPPPPAASSTSGPQPPPPQSLNLLSQAQLQAQPLAPGGTQMKKKSGFQITSVTPAQISASISSNNSIAEDTESYDDLDESHTEDLSSSEILDVSLSRATDLGEPERSSSEETLNNFQEAETPGAVSPNQPHLPQPHLPHLPQQNVVINGNAHPHHLHHHHQIHHGHHLQHGHHHPSHVAVASASITGGPPSSPVSRKLSTTGSSDSITPVAPTSAVSSSGSPASVMTNMRAPSTTGGIGINSVTGTSTVNNVNITAVGSFNPNVTSSMLGNVNISTSNIPSAAGVSVGPGVTSGVNVNILSGMGNGTISSSAAVSSVPNAAAGMTGGSVSSQQQQPTVNTSRFRVVKLDSSSEPFKKGRWTCTEFYEKENAVPATEGVLINKVVETVKQNPIEVTSERESTSGSSVSSSVSTLSHYTESVGSGEMGAPTVVVQQQQQQQQQQQQQPALQGVTLQQMDFGSTGPQSIPAVSIPQSISQSQISQVQLQSQELSYQQKQGLQPVPLQATMSAATGIQPSPVNVVGVTSALGQQPSISSLAQPQLPYSQAAPPVQTPLPGAPPPQQLQYGQQQPMVSTQMAPGHVKSVTQNPASEYVQQQPILQTAMSSGQPSSAGVGAGTTVIPVAQPQGIQLPVQPTAVPAQPAGASVQPVGQAPAAVSAVPTGSQIANIGQQANIPTAVQQPSTQVPPSVIQQGAPPSSQVVPPAQTGIIHQGVQTSAPSLPQQLVIASQSSLLTVPPQPQGVEPVAQGIVSQQLPAVSSLPSASSISVTSQVSSTGPSGMPSAPTNLVPPQNIAQTPATQNGNLVQSVSQPPLIATNTNLPLAQQIPLSSTQFSAQSLAQAIGSQIEDARRAAEPSLVGLPQTISGDSGGMSAVSDGSSSSLAASASLFPLKVLPLTTPLVDGEDESSSGASVVAIDNKIEQAMDLVKSHLMYAVREEVEVLKEQIKELIEKNSQLEQENNLLKTLASPEQLAQFQAQLQTGSPPATTQPQGTTQPPAQPASQGSGPTA
 |  | binds | TSC22D3 (protein, UniProt Q99576 1-134) MNTEMYQTPMEVAVYQLHNFSISFFSSLLGGDVVSVKLDNSASGASVVAIDNKIEQAMDLVKNHLMYAVREEVEILKEQIRELVEKNSQLERENTLLKTLASPEQLEKFQSCLSPEEPAPESPQVPEAPGGSAV
